# Laboratory results: the supplement of paper PMC6411743
# By UniProt entry, the sequences of proteins in these tests, tags left out. Where a name states a change or a piece, a line headed by the entry shows the natural chain unless it says otherwise.
# UniProt Q9P0B6: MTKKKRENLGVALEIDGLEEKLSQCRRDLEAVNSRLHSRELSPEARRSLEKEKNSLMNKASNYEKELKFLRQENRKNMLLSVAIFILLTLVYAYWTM
# UniProt Q9NXV6: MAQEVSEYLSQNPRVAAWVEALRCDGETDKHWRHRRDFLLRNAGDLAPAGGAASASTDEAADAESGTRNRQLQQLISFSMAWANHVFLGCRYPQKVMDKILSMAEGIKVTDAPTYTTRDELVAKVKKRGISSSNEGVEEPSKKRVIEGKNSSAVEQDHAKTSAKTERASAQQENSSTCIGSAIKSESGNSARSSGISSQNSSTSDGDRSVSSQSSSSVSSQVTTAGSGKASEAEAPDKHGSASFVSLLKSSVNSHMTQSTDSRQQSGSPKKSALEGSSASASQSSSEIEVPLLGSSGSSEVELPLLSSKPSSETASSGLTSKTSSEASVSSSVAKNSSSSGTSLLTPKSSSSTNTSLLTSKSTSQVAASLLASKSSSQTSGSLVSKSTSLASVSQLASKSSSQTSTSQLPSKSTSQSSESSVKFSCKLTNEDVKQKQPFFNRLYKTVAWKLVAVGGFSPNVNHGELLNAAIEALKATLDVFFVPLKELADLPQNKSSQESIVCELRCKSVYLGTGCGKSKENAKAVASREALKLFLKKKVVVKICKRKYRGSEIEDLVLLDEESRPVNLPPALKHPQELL
# UniProt Q9NQY0: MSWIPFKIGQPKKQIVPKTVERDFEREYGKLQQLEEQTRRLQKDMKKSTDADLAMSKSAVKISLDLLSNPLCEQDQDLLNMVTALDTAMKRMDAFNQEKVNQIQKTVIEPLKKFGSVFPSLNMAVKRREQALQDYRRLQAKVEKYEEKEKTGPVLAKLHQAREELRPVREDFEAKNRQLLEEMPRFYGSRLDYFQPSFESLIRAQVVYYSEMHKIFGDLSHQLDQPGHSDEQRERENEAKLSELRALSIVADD
# UniProt Q9NXE8: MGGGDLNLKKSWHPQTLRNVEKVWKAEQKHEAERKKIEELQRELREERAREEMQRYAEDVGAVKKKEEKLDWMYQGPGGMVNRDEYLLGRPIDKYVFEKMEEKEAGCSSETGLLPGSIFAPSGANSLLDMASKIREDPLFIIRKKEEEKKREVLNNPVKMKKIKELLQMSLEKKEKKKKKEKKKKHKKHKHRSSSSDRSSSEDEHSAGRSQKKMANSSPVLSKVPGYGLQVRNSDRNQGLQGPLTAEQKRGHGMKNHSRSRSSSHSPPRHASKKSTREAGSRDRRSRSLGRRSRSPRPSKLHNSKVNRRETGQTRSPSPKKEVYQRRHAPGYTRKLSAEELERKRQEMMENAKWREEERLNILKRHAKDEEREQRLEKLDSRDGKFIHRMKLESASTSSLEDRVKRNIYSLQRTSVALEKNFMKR
# UniProt Q9NU19: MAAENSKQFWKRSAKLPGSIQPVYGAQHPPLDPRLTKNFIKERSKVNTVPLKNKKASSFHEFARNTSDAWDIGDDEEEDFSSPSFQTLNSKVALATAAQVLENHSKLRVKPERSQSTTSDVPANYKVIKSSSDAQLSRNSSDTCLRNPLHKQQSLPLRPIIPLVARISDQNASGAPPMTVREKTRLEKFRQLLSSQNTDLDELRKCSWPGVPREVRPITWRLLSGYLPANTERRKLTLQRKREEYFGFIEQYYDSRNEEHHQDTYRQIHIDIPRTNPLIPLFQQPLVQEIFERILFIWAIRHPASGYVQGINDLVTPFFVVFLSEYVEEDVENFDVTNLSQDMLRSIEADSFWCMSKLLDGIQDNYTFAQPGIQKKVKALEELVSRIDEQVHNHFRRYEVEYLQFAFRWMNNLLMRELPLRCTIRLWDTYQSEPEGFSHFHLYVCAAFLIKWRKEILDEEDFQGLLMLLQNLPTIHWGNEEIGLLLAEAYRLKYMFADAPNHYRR
# UniProt Q9NV56, whole entry: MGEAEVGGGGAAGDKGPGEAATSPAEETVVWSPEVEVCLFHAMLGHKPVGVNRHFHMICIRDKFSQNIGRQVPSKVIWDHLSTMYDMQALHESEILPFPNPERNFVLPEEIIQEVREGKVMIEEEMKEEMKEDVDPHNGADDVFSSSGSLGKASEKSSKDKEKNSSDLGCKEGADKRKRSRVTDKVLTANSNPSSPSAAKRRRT
# UniProt Q9P0T7: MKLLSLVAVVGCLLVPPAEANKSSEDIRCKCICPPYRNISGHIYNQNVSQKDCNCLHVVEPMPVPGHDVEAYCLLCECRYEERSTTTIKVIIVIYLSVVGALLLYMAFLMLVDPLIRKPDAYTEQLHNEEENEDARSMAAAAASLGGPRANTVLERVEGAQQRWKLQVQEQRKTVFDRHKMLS
# UniProt Q9NX00: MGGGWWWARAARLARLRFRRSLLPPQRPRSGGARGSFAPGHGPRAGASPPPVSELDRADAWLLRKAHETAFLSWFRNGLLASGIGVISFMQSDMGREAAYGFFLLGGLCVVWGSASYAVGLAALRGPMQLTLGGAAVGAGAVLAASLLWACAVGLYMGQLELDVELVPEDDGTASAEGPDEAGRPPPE
# UniProt Q9NZL4: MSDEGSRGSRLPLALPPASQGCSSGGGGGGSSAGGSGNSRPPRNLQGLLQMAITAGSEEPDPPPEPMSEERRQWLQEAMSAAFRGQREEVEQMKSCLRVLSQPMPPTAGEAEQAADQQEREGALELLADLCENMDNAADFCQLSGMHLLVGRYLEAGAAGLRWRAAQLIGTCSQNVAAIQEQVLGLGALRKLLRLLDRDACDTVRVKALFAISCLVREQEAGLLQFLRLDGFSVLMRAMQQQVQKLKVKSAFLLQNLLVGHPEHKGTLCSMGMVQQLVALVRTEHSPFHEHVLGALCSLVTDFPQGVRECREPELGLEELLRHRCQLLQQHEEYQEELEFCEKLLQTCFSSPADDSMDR
# UniProt Q9NUP7: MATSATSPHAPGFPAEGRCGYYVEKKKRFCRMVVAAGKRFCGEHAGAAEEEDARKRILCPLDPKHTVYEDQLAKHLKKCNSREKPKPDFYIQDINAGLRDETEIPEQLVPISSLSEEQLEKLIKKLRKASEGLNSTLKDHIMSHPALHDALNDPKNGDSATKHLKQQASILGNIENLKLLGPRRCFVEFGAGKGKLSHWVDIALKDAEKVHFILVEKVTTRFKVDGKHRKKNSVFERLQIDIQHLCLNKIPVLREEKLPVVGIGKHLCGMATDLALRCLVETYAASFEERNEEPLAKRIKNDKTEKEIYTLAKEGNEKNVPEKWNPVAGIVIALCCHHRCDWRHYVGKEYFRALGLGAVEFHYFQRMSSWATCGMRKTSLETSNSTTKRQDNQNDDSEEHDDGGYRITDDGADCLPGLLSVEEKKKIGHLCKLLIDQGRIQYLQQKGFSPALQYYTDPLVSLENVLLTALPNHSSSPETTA
# UniProt Q9NWV8, whole entry: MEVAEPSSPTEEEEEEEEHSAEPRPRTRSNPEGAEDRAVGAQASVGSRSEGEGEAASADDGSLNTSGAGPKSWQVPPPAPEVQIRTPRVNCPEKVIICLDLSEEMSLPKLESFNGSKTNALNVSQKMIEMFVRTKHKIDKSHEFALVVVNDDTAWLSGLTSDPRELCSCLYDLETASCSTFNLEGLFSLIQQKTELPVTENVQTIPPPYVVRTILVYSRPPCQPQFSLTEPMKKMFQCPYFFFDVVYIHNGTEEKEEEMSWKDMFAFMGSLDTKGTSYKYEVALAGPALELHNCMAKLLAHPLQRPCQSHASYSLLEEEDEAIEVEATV
# UniProt Q9P0L0: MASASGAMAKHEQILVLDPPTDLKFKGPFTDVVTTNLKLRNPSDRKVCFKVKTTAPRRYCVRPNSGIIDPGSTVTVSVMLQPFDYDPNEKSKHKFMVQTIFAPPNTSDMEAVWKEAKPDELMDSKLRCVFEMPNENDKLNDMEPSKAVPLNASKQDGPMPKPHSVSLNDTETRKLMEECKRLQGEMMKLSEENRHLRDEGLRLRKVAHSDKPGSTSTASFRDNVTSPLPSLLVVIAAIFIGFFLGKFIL
# UniProt Q9NPD8: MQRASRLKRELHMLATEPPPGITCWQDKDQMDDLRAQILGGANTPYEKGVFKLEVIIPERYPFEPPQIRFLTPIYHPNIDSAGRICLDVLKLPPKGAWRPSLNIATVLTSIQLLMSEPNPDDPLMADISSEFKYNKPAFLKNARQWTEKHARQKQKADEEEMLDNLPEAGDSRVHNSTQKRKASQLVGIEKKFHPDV
# UniProt Q9NRH2: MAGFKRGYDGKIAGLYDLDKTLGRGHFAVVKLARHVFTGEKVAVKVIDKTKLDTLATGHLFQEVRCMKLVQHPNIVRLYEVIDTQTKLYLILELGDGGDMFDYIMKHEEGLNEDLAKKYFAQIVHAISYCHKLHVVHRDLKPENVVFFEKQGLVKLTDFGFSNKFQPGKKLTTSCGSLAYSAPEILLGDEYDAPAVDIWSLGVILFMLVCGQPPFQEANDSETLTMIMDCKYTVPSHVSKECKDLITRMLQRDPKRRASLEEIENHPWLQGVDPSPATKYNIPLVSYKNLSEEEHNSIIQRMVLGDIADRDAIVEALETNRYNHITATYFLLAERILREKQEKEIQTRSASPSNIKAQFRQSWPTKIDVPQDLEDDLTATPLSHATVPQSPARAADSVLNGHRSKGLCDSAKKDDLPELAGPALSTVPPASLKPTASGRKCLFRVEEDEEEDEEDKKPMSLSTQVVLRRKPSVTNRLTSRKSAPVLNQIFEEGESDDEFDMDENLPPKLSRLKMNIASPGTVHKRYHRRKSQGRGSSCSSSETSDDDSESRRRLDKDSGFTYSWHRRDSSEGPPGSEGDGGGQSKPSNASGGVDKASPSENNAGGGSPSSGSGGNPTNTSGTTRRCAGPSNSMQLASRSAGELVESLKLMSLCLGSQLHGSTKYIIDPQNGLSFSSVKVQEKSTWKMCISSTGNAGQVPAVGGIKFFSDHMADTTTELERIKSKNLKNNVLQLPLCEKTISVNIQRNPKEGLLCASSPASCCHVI
# UniProt Q9NRL2: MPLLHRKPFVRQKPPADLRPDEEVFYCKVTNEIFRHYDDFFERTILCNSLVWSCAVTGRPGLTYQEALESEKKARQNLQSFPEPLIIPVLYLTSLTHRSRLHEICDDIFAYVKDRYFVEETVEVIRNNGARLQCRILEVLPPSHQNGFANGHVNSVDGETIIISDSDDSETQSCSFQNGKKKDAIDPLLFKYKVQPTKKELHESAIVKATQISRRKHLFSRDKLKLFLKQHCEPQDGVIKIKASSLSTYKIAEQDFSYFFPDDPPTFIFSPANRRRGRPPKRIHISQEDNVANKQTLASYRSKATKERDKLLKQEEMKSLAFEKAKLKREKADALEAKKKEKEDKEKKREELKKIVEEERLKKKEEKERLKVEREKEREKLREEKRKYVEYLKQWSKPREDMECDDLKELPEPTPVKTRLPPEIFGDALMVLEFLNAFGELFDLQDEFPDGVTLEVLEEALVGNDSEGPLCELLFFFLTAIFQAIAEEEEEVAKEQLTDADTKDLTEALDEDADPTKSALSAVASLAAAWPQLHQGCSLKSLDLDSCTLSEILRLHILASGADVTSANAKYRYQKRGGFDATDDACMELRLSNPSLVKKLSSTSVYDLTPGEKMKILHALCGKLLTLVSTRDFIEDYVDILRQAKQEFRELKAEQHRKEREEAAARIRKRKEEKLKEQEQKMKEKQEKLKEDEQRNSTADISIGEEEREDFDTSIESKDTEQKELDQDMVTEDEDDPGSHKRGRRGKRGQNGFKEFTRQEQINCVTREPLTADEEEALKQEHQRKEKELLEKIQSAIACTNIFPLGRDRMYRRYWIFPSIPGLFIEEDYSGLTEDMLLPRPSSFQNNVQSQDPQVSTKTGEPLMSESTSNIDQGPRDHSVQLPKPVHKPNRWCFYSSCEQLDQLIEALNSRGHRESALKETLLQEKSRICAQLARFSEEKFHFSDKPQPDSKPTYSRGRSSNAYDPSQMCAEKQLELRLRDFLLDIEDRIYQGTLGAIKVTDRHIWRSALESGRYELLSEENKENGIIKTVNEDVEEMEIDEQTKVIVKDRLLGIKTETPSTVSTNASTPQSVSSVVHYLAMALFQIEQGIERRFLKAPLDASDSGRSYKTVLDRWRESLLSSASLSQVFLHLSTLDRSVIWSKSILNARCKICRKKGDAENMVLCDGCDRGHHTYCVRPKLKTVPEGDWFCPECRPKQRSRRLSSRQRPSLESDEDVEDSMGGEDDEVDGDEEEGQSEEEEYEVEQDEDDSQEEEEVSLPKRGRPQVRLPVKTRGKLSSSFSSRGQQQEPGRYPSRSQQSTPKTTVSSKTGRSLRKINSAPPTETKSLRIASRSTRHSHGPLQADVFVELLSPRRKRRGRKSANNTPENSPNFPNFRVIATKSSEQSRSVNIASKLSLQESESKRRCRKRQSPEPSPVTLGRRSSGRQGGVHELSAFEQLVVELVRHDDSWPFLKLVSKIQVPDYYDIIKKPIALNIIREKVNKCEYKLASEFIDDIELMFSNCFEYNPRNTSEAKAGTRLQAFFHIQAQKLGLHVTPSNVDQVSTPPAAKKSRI
# UniProt Q9P032: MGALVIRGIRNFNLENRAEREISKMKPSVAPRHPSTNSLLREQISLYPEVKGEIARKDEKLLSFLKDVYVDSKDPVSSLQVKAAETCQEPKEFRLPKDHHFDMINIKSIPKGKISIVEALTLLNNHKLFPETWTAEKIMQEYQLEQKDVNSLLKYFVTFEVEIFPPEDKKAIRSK
# ± gives the standard deviation of the averaged measurements. The list shows a part of the results, in another mix than the full data. Most entries show no effect beyond the scatter of the controls.
# Compound: Nc1ncnc2c1ncn2[C@@H]1O[C@H](COP(=O)(O)OP(=O)(O)OP(=O)(O)O)[C@@H](O)[C@H]1O [adenosine triphosphate]
# Experiment: NP40-soluble protein abundance relative to vehicle (solubility fold change) (ratio); higher = more soluble protein in presence of ATP
# How it was run: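 Each value is a fold change relative to the detergent-processed vehicle, calculated per replicate from vsn-normalised intensities. Jurkat crude lysate received eight concentrations (0.1 to 10 mM) for 10 min at room temperature and 3 min at 37 °C, then was solubilised in 0.8% NP40 with benzonase (60 min, 4 °C). The ultracentrifuged supernatant was TMT-labelled and run by LC-MS/MS in three independent experiments.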
Target,NP40-soluble protein abundance (concentration: 0.1mM),NP40-soluble protein abundance (concentration: 0.5mM)
KIF13B (UniProt Q9NQT8),1.02 ± 0.022,1.05 ± 0.05
UniProt Q9P0B6,0.78 ± 0.15,0.788 ± 0.28
SMC4 (UniProt Q9NTJ3),1.01 ± 0.036,1.04 ± 0.06
UniProt Q9P0K8 and related entries,0.942 ± 0.14,0.934 ± 0.041
DYNLRB1 (UniProt Q9NP97),0.944 ± 0.048,0.912 ± 0.12
UniProt Q9NUQ3,1 ± 0.015,1.02 ± 0.051
CDKN2AIP (UniProt Q9NXV6),0.965 ± 0.019,0.969 ± 0.025
UniProt Q9NZ08-2,1.01 ± 0.05,1.01 ± 0.031
BIN3 (UniProt Q9NQY0),0.873 ± 0.17,0.906 ± 0.22
UniProt Q9NYU2 and related entries,1.07 ± 0.079,1.06 ± 0.074
CTNNBIP1 (UniProt Q9NSA3),0.976 ± 0.037,0.958 ± 0.032
DPP3 (UniProt Q9NY33),1.04 ± 0.064,1.03 ± 0.064
UniProt Q9NW15-5|C9J670 and related entries,0.997 ± 0.12,0.971 ± 0.096
UniProt Q9NX14 and related entries,0.896 ± 0.11,0.874 ± 0.12
INTS10 (UniProt Q9NVR2),1.02 ± 0.018,1.016 ± 0.006
DNAJC17 (UniProt Q9NVM6),0.96 ± 0.096,0.902 ± 0.044
UniProt Q9NXE8,0.947 ± 0.062,1.07 ± 0.018
RLIM (UniProt Q9NVW2),1.02 ± 0.17,0.984 ± 0.13
TBC1D22B (UniProt Q9NU19),1.028 ± 0.0041,1.04 ± 0.015
UniProt Q9NZQ3 and related entries,1.04 ± 0.062,1.07 ± 0.023

Target,NP40-soluble protein abundance (concentration: 0.1mM),NP40-soluble protein abundance (concentration: 0.5mM)
UniProt Q9NV56,0.998 ± 0.037,0.985 ± 0.014
UniProt Q9NSI8 and related entries,1.01 ± 0.032,0.981 ± 0.043
UniProt Q9NZM5,0.971 ± 0.039,0.904 ± 0.044
UniProt Q9P0U3 and related entries,1.03 ± 0.0091,1 ± 0.068
UniProt Q9NVA1 and related entries,0.997 ± 0.063,1.06 ± 0.12
CNOT2 (UniProt Q9NZN8),0.993 ± 0.039,1.13 ± 0.059
ZNHIT6 (UniProt Q9NWK9),0.989 ± 0.064,0.985 ± 0.074
TMEM30A (UniProt Q9NV96),0.889 ± 0.12,0.851 ± 0.14
PAG1 (UniProt Q9NWQ8),0.945 ± 0.053,0.919 ± 0.082
FAM118A (UniProt Q9NWS6),0.999 ± 0.096,0.971 ± 0.038
NLE1 (UniProt Q9NVX2),1.04 ± 0.088,0.989 ± 0.049
UniProt Q9NZB8 and related entries,1.02 ± 0.038,0.982 ± 0.027
TMEM9 (UniProt Q9P0T7),0.942 ± 0.093,0.887 ± 0.11
FANCI (UniProt Q9NVI1),1 ± 0.078,1.01 ± 0.05
UniProt Q9NX47,1.03 ± 0.045,0.991 ± 0.12
TMEM160 (UniProt Q9NX00),1.01 ± 0.076,1.07 ± 0.097
HOMER3 (UniProt Q9NSC5),0.989 ± 0.1,0.984 ± 0.041
UniProt Q9NV70 and related entries,1.08 ± 0.068,1.08 ± 0.094
UniProt Q9NRA8 and related entries,0.975 ± 0.062,1.02 ± 0.069
OXSM (UniProt Q9NWU1),1.05 ± 0.12,1.1 ± 0.14

# Some of the entries above in a different format:
Target	NP40-soluble protein abundance (concentration: 0.1mM)	NP40-soluble protein abundance (concentration: 0.5mM)
UniProt Q9P0U3 and related entries	1.03 ± 0.0091	1 ± 0.068
TMEM30A (UniProt Q9NV96)	0.889 ± 0.12	0.851 ± 0.14
UniProt Q9NZB8 and related entries	1.02 ± 0.038	0.982 ± 0.027
TMEM9 (UniProt Q9P0T7)	0.942 ± 0.093	0.887 ± 0.11

# (listing goes on)

Target,NP40-soluble protein abundance (concentration: 0.1mM),NP40-soluble protein abundance (concentration: 0.5mM)
UniProt Q9NWS8 and related entries,1.06 ± 0.067,0.98 ± 0.11
HSPBP1 (UniProt Q9NZL4),0.942 ± 0.058,0.903 ± 0.051
USE1 (UniProt Q9NZ43),0.943 ± 0.037,0.938 ± 0.025
UniProt Q9NUP7,1.04 ± 0.034,1.04 ± 0.082
UniProt Q9P1F3,0.886 ± 0.11,0.913 ± 0.053
SMYD2 (UniProt Q9NRG4),1.1 ± 0.099,1.12 ± 0.1
UniProt Q9NSI2 and related entries,0.965 ± 0.061,0.93 ± 0.082
UniProt Q9NWV8,0.982 ± 0.012,0.994 ± 0.036
LZTFL1 (UniProt Q9NQ48),0.931 ± 0.098,0.875 ± 0.11
UniProt Q9P0L0 and related entries,0.988 ± 0.025,0.997 ± 0.025
UBE2T (UniProt Q9NPD8),1.03 ± 0.099,0.929 ± 0.1
FAM114A2 (UniProt Q9NRY5),0.961 ± 0.036,0.976 ± 0.014
SNRK (UniProt Q9NRH2),1.07 ± 0.059,1.07 ± 0.047
EXOSC5 (UniProt Q9NQT4),1.06 ± 0.011,1.04 ± 0.063
MTPAP (UniProt Q9NVV4),1.06 ± 0.039,1.1 ± 0.065
SLC17A5 (UniProt Q9NRA2),0.894 ± 0.017,0.847 ± 0.15
BAZ1A (UniProt Q9NRL2),1.05 ± 0.021,1.14 ± 0.053
ADPRHL2 (UniProt Q9NX46),0.9938 ± 0.009,0.947 ± 0.022
UniProt Q9NR19 and related entries,0.97 ± 0.07,1.02 ± 0.049
UniProt Q9P032,0.921 ± 0.066,0.932 ± 0.077
